# Screening data

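Genome-wide siRNA knockdown in TC32 Ewing sarcoma cells, comparing luciferase light from an NR0B1-promoter reporter with a CMV-promoter reporter 48 hours after transfection. Each siRNA was applied at 20 nM. A z-score of the log NR0B1-over-CMV signal, less the median of siRNAs with the same seed; more negative means a stronger specific loss of the NR0B1 reporter.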

This is part of the screen; most of the strongest results are not listed here. Sequences are the guide (antisense) strand, without overhang.

UGACUUGUGACUUCGUCCC against CLIP1 gave seed-corrected z-score -0.7054. For AAGGUCUUCACCUUGGUGC against NFKB2 the result was seed-corrected z-score -0.01024. AGAAUUAUUCAUCACAUCG against PRPH2 gave seed-corrected z-score -0.003021. For UGUUAAUCUGGAAAAAGGC against TRMT2B the result was seed-corrected z-score -0.544.

For AAUUGACCAAACUACAGCC against SLC9B2 the result was seed-corrected z-score 0.7559. For UUUCCUAAUAUGGUCAAGU against LOC646865 the result was seed-corrected z-score 0.05478. UCCUUCUCCAUUAAGUGGG against CBY1 gave seed-corrected z-score 0.5402. With UUUGUAGUUCACAUCAUCC against PTDSS1 the assay gave seed-corrected z-score 0.387.

With UCAGGAAGUAAUAGGGUGA against APH1A the assay gave seed-corrected z-score 0.9812. UAGGUAAAGCUCGUCUUUC against GSK3A gave seed-corrected z-score -0.1712. UUCCUUCCCAAAUUCAACU against LINC01587 gave seed-corrected z-score -1.833. UAUUCAUGCAGAGCUCACC against CLPS gave seed-corrected z-score 0.5148.

With UCAAUUAUUGUGCGUGUUC against SLC25A46 the assay gave seed-corrected z-score 0.6261. Result for UACUGGAUCAGGCAUACUG against PCM1 was seed-corrected z-score -0.2733. AUCCUGAUCAGUUUUCCGC against C17orf98 gave seed-corrected z-score 0.9579. With UAAGUGCUCAGGUCUGUAA against BAHD1 the assay gave seed-corrected z-score 0.979.

For UGACUUCAAAAUUCCUUUG against LY9 the result was seed-corrected z-score -0.01157. UUGGGAUAUGGUAACAGUC against SH3KBP1 read seed-corrected z-score 1.303. With UAGUCCAUAAGUUAUAACC against LOC344382 the assay gave seed-corrected z-score 0.1547. UUUUAGGCAAGAGUAGCUG against USH1C gave seed-corrected z-score -0.4511.

UGCCUGUCGCUCAAAAUGC against KIAA1191 read seed-corrected z-score 0.359. For UGUCUAUUAAAUCACUGUC against LDLRAD4 the result was seed-corrected z-score -0.1713. UCUACCUUGAGGACGAAUG against SH2B2 gave seed-corrected z-score 0.02599. Result for AAUCUUCUUAAUACGAGCC against NFYC was seed-corrected z-score 0.1131.

UGCCUGAUCAUGGUGGAGU against FAM157A read seed-corrected z-score -0.9588. For UACUUUCACAGAGACCUGC against TXLNGY the result was seed-corrected z-score -1.175. For UUGCGGAGAAGUUAGUAAG against OR2B2 the result was seed-corrected z-score 0.365. With UCUGGAAUUACGAAGAUCA against ZNF767P the assay gave seed-corrected z-score -0.1082.

With UUUGCUCCCAUUCAAGGCG against C2 the assay gave seed-corrected z-score 1.638. For UUUGAAUCAUCCUUCGGGC against FOXK2 the result was seed-corrected z-score 0.5413. UGACCUUCCUGUUUAGGGC against TEK read seed-corrected z-score -0.05539.

Some entries from above, unchanged:

| siRNA | gene | seed-corrected z-score |
|---|---|---|
| `UGACUUGUGACUUCGUCCC` | CLIP1 | -0.7054 |
| `UUUCCUAAUAUGGUCAAGU` | LOC646865 | 0.05478 |

Data taken from PubChem BioAssay AID1159506, deposited by NCATS (2015).